In PMC4644379 one finds binding data, which are given here for one substance.

The chains behind the UniProt entries cited, without tags or fusion partners.
UniProt P26718: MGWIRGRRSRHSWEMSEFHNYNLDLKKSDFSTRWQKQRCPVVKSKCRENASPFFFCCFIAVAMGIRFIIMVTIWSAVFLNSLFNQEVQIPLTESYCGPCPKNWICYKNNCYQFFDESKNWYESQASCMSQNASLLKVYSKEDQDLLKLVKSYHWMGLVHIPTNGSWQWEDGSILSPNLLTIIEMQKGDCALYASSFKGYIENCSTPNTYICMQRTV

No constants are given. Whether binding was seen depends on the method and setting.

This assay concerns the target NKG2D on human NK cells (human (endogenous in NK cells and CD8+ T cells from PBMC)) (UniProt P26718). Put plainly: flow cytometry on cells; MICA-129Met-Fc, MICA-129Val-Fc or OVA-Fc at several concentrations on human NK cells; FITC goat anti-mouse IgG; 4°C; only the binder purified.

“OVA-mIgG2a-Fc fusion protein (from UniProt P01012 1-386)”: the binding result is on record as “no binding”.
